{"source": "PubChem BioAssay AID504834", "about": "(National Center for Advancing Translational Sciences (NCATS), 2011)", "note": "About 22,000 (6.9%) of roughly 320,000 compounds were called active. The inconclusive results got no clear call from the source; some entries with a clear call stand among them for comparison. The call rests on the fitted dose curve; in most records, active means well fitted inhibition curve with a large enough effect; inconclusive means small, poorly fitted or top-dose-only effect, or another doubt; inactive means no such curve, though single readings can be large or run the other way. A potency beside an inconclusive call is a rough fit, not a confirmed value. On the % scale 0 is the no-effect control and ±100 the full control effect; potency means the concentration at half of the fitted maximal effect.", "data": [{"assay": "Primary qHTS for delayed death inhibitors of the malarial parasite plastid, 96 hour incubation", "conditions": "P. falciparum luciferase reporter growth; series mostly up to 28.7 µM; activity change, negative = inhibition: at the top concentration", "method_in_brief": "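Two-generation exposure (96 h) targets delayed-death phenotype. Reporter parasites carrying integrated firefly luciferase, in red cells at 2% hematocrit and 0.05% parasitemia final, kept at 37 C, 5% CO2; luminescence loss indicates inhibition.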", "values": [{"smiles": "CCOC(=O)Cc1csc(NC(=O)CN(C)S(=O)(=O)c2cccc3cccnc23)n1", "Potency": "inconclusive: 11.7 µM [inhibitor, partial curve, poor fit]"}, {"smiles": "CC(O)c1nc2ccc(C(=O)O)cc2[nH]1", "note": "(configuration not stated)", "activity change, negative = inhibition": "inactive: 140%"}, {"smiles": "CCCn1c(=N)c(S(=O)(=O)c2ccc(F)cc2)cc2c(=O)n3cccc(C)c3nc21", "Potency": "inconclusive: 11.7 µM [inhibitor, single point]"}, {"smiles": "CC(C)Oc1ccccc1/C=N/NC(=O)c1ccccc1Cl", "activity change, negative = inhibition": "inactive: 7.13%"}, {"smiles": "Cc1ccnc(NC(=O)CCC(=O)N(CC(=O)NCc2ccccc2)Cc2ccccc2)c1", "activity change, negative = inhibition": "inactive: 59.1%"}, {"smiles": "Oc1ccc(/C=N\\Nc2cc(N3CCOCC3)nc(N3CCOCC3)n2)c(O)c1", "Potency": "inconclusive: 18.5 µM [inhibitor, single point]"}, {"smiles": "CSc1nc(C)cc(OCCNS(=O)(=O)c2cc(C)ccc2C)n1", "Potency": "inconclusive: 0.928 µM [inhibitor, full curve, poor fit]"}, {"smiles": "CC(C)(C)C(=O)COC(=O)c1cc(-c2cccnc2)nc2ccccc12", "Potency": "inconclusive: 10.4 µM [inhibitor, single point]"}, {"smiles": "COc1cccc(CNC(=O)c2ccc(Cl)c(NC3=NC4CS(=O)(=O)CC4S3)c2)c1", "note": "(configuration not stated)", "Potency": "active: 2.62 µM"}, {"smiles": "CCC(=O)N(CCC(Cc1ccccc1)c1ccc2c(c1)OCO2)Cc1ccccc1F", "note": "(configuration not stated)", "Potency": "active: 11.7 µM"}, {"smiles": "CCN(Cc1ccccc1)C(=O)c1cccc(S(=O)(=O)N2CCN(c3ccc(F)cc3)CC2)c1", "Potency": "inconclusive: 18.5 µM [inhibitor, single point]"}, {"smiles": "CN(C)S(=O)(=O)c1ccc(C(=O)Nc2ccc(CCC(=O)N3CCCC3)cc2)cc1", "activity change, negative = inhibition": "inactive: -2.01%"}, {"smiles": "Cc1cc(=O)oc(C)c1C(=O)NCc1ccccn1", "Potency": "inconclusive: 0.828 µM [inhibitor, full curve]"}, {"smiles": "Cc1cc(Cl)ccc1OCC(=O)N/N=C1\\CC2C=CCC12", "note": "(configuration not stated)", "activity change, negative = inhibition": "inactive: -4.41%"}, {"smiles": "CCc1cc(=O)oc2cc(OC(C)C(=O)NCc3ccccn3)ccc12", "note": "(configuration not stated)", "activity change, negative = inhibition": "inactive: 25.7%"}, {"smiles": "COc1cccc2c(=O)c3cccc(N)c3[nH]c12", "Potency": "inconclusive: 18.5 µM [inhibitor, single point]"}, {"smiles": "COc1ccc(C2CC(=O)C3=C(C2)NC(C)=C(C(=O)Nc2ccccc2C)C3c2coc3ccc(C)cc3c2=O)cc1OC", "note": "(configuration not stated)", "Potency": "inconclusive: 4.15 µM [inhibitor, full curve, poor fit]"}, {"smiles": "CCOC(=O)C(=O)Nc1cc(C)nn1-c1nc2ccccc2[nH]1", "activity change, negative = inhibition": "inactive: 95%"}, {"smiles": "CCN(CC)S(=O)(=O)c1ccc(N(C)C)c(NC(=O)CC(NC(C)=O)c2ccccc2)c1", "note": "(configuration not stated)", "Potency": "inconclusive: 13.1 µM [inhibitor, partial curve, poor fit]"}, {"smiles": "O=C(Nc1ccc(-c2csc(Nc3cccc(C(F)(F)F)c3)n2)cc1)c1cc([N+](=O)[O-])cc(C(F)(F)F)c1", "Potency": "active: 0.465 µM"}, {"smiles": "COC(=O)CCC(=O)c1oc2ccccc2c1N", "Potency": "inconclusive: 10.4 µM [inhibitor, single point]"}, {"smiles": "CCN(CC)CCNCc1cc(Cl)ccc1OCc1ccccc1F", "activity change, negative = inhibition": "inactive: -0.353%"}, {"smiles": "Cc1onc(-c2c(Cl)cccc2Cl)c1CO/N=C(\\C#N)c1c(Cl)cccc1Cl", "Potency": "inconclusive: 7.38 µM [inhibitor, partial curve]"}, {"smiles": "Cc1ccc(C(=O)C[n+]2cc(-c3ccc(C)cc3)n3c2CCCCC3)cc1", "Potency": "active: 0.415 µM"}, {"smiles": "Clc1ccc(SCCCN2CCCCC2)cc1", "Potency": "inconclusive: 7.38 µM [inhibitor, partial curve, poor fit]"}, {"smiles": "CCC1CCCCN1CCNC(=O)C1CCN(S(=O)(=O)c2c(C)noc2C)CC1", "note": "(configuration not stated)", "Potency": "inconclusive: 11.7 µM [inhibitor, single point]"}, {"smiles": "CCOc1ccccc1N(CC(=O)NCCSc1ccccc1)S(C)(=O)=O", "activity change, negative = inhibition": "inactive: 478%"}, {"smiles": "CN(C)c1ccc(-c2c(-c3ccc4c(c3)OCO4)noc2-c2ccsc2)cn1", "activity change, negative = inhibition": "inactive: -12.3%"}, {"smiles": "COc1cccc(/C=N/NC(N)=S)c1OS(=O)(=O)c1ccccc1", "Potency": "inconclusive: 18.5 µM [inhibitor, single point]"}, {"smiles": "COCCCn1c(SC(C)C(=O)NC2CC2)nc2ccccc2c1=O", "note": "(configuration not stated)", "Potency": "inconclusive: 13.1 µM [inhibitor, single point]"}, {"smiles": "CSCC[C@H](NC(=O)c1cccc([N+](=O)[O-])c1C)c1nc2ccccc2[nH]1", "Potency": "inconclusive: 4.65 µM [inhibitor, partial curve, poor fit]"}, {"smiles": "O=C1c2ccccc2C(Nc2ccc(Cl)cn2)N1Cc1ccccc1", "note": "(configuration not stated)", "Potency": "inconclusive: 14.7 µM [inhibitor, partial curve]"}, {"smiles": "CCCCc1ccc(NC(=S)N2CCCC2)cc1", "Potency": "inconclusive: 18.5 µM [inhibitor, single point]"}, {"smiles": "CC1=C(C(=O)Nc2ccccc2C(=O)N2CCC(C)CC2)SCCO1", "activity change, negative = inhibition": "inactive: -24.1%"}, {"smiles": "CC1CCCN(Cc2c(O)ccc3c2O/C(=C\\c2ccco2)C3=O)C1", "note": "(configuration not stated)", "Potency": "active: 3.29 µM"}, {"smiles": "CC(C)(C)c1cc(CCC(=O)NNC(=S)NC(=O)c2ccccc2)cc(C(C)(C)C)c1O", "Potency": "inconclusive: 9.28 µM [inhibitor, partial curve, poor fit]"}, {"smiles": "COc1cc(NS(=O)(=O)c2ccc3ccccc3c2)c2ncccc2c1", "Potency": "inconclusive: 8.28 µM [inhibitor, partial curve, poor fit]"}, {"smiles": "N#Cc1ccc(NC(=O)C2CC(c3ccc(F)cc3)=NO2)cc1", "note": "(configuration not stated)", "Potency": "inconclusive: 0.0828 µM [inhibitor, full curve, poor fit]"}, {"smiles": "COc1cc(F)c(C2=CC(=O)C[C@H](c3ccc(F)cc3)C2)cc1F", "Potency": "inconclusive: 2.33 µM [inhibitor, single point]"}, {"smiles": "CCOC(=O)C1=C(C)N(C)C(=S)NC1c1ccc(Cl)cc1", "note": "(configuration not stated)", "Potency": "inconclusive: 18.5 µM [inhibitor, single point]"}, {"smiles": "CN(C)S(=O)(=O)c1ccc(N2CCCC2)c(C(=O)OCC(=O)NC2CCCCC2)c1", "Potency": "inconclusive: 11.7 µM [inhibitor, single point]"}, {"smiles": "COc1ccc(C(=O)Nc2ccc(NC(=O)Cc3ccccc3)cn2)cc1", "Potency": "inconclusive: 8.28 µM [inhibitor, partial curve, poor fit]"}, {"smiles": "O=C(Cn1ncc2c3ccccc3n(Cc3ccccc3)c2c1=O)NCCCN1CCOCC1", "Potency": "inconclusive: 0.262 µM [inhibitor, full curve, poor fit]"}, {"smiles": "Cc1ccc(-n2c(C)cc(/C=C3\\NC(=O)NC3=O)c2C)c(C)c1", "Potency": "active: 13.1 µM"}, {"smiles": "COc1ccc(C2=NOC(C(=O)Nc3ccc4c(c3)OCCO4)C2)cc1OC", "note": "(configuration not stated)", "Potency": "inconclusive: 11.7 µM [inhibitor, partial curve]"}, {"smiles": "CCn1ncc(S(=O)(=O)N2CCN(c3cccc(OC)c3)CC2)c1C", "activity change, negative = inhibition": "inactive: -4.99%"}, {"smiles": "CCCOC(=S)Nc1ccccc1", "Potency": "inconclusive: 18.5 µM [inhibitor, single point]"}, {"smiles": "Cc1ccc(-c2cc(Cc3ccccn3)c(=O)[nH]n2)cc1", "activity change, negative = inhibition": "inactive: -20%"}, {"smiles": "Cc1ccsc1/C=C1\\SC(N)=NC1=O", "activity change, negative = inhibition": "inactive: 128%"}, {"smiles": "Cc1ccc(-c2nnc(OCc3cccnc3)c3ccccc23)cc1", "Potency": "inconclusive: 8.28 µM [inhibitor, partial curve, poor fit]"}, {"smiles": "COc1ccc(/C=N/NC(=S)Nc2ccccc2)cc1COc1ccc(F)cc1F", "Potency": "inconclusive: 10.4 µM [inhibitor, partial curve, poor fit]"}, {"smiles": "O=C(NC1CCCC1)c1ccc([N+](=O)[O-])s1", "Potency": "active: 10.4 µM"}, {"smiles": "Nc1nc(COC(=O)C2CCN(C(=O)c3ccc(Cl)cc3)CC2)nc(Nc2ccccc2)n1", "Potency": "inconclusive: 18.5 µM [inhibitor, single point]"}, {"smiles": "O=C1CN(C(=O)c2cccc([N+](=O)[O-])c2)CC(=O)N1", "Potency": "inconclusive: 11.7 µM [inhibitor, partial curve, poor fit]"}, {"smiles": "Cc1cc2oc(C(=O)Nc3ccc(S(=O)(=O)N4CCCC(C)C4)cc3)cc(=O)c2cc1Cl", "note": "(configuration not stated)", "Potency": "inconclusive: 2.94 µM [inhibitor, single point]"}, {"smiles": "O=C(CN1CCN(S(=O)(=O)c2ccccc2)CC1)Nc1ccnn1C1CCCC1", "activity change, negative = inhibition": "inactive: -24.2%"}, {"smiles": "CCC(=O)c1ccc(N2CCC(C)CC2)c(F)c1", "activity change, negative = inhibition": "inactive: 9.28%"}, {"smiles": "O=C(NCc1ccco1)c1cc2c(s1)CSC2", "Potency": "inconclusive: 0.147 µM [inhibitor, full curve, poor fit]"}, {"smiles": "C[C@@H]1CN(Cc2nc(Cc3ccccc3F)no2)C[C@H](C)O1", "Potency": "inconclusive: 10.4 µM [inhibitor, single point]"}, {"smiles": "CCOC(=O)c1ccc(NC(=O)c2ccc3c(c2)C(=O)N(Cc2cccnc2)C3=O)cc1", "activity change, negative = inhibition": "inactive: 20.9%"}, {"smiles": "COc1ccc(NC(=O)CSc2ncnc3[nH]ncc23)cc1", "Potency": "inconclusive: 6.57 µM [inhibitor, partial curve]"}, {"smiles": "Cc1ccc(C(=O)NCCCNC(=O)c2ccccc2F)cn1", "Potency": "active: 2.94 µM"}, {"smiles": "CCCn1c(N)c(N(CCOC)C(=O)c2cc(C)cc(C)c2)c(=O)[nH]c1=O", "activity change, negative = inhibition": "inactive: 61.2%"}, {"smiles": "COC(=O)c1ccc(CN2CCc3ccccc32)cc1", "activity change, negative = inhibition": "inactive: 0%"}, {"smiles": "CNC(=O)C1=C(C)Nc2nc3ccccc3n2C1c1ccc(F)cc1", "note": "(configuration not stated)", "Potency": "inconclusive: 13.1 µM [inhibitor, single point]"}, {"smiles": "CCN(CC(=O)Nc1c(F)cccc1F)C(=O)CCN1C(=O)C2CC=CCC2C1=O", "note": "(configuration not stated)", "activity change, negative = inhibition": "inactive: 62.6%"}, {"smiles": "O=C(CNc1ccc(Br)cc1)NC(=O)NC1CCCCC1", "activity change, negative = inhibition": "inactive: -28.4%"}, {"smiles": "Oc1c(Cl)cccc1C=Nc1cc(C(F)(F)F)ccc1N1CCCC1", "Potency": "inconclusive: 13.1 µM [inhibitor, single point]"}, {"smiles": "CC(Cl)C(=O)N1c2ccccc2CCc2ccccc21", "note": "(configuration not stated)", "Potency": "inconclusive: 0.0522 µM [inhibitor, full curve, poor fit]"}, {"smiles": "O=C(Nc1ccccc1)c1csc(-c2ccccc2)n1", "activity change, negative = inhibition": "inactive: 12.3%"}, {"smiles": "CCOC(=O)C1(CC2CC2)CCN(Cc2ccc(C(=O)OC)cc2)CC1", "activity change, negative = inhibition": "inactive: -18.8%"}, {"smiles": "CC(C)CCn1c(NCCc2ccccc2)nc2c1c(=O)n(C)c(=O)n2C", "Potency": "inconclusive: 11.7 µM [inhibitor, single point]"}]}]}
